Assay results as given in patent US20140242083A1 (Hoffmann-La Roche, published 2014).
Changes are numbered by the printed parent chain. Results are given in words; binding and its absence hold for the method and conditions named. Some binding calls cover weakened binding; strength is not graded here.

Sequences of proteins named here, by UniProt entry; tags and fusion partners are left off. Residues count along the entry.
UniProt Q6UVK1, residues 30-2322: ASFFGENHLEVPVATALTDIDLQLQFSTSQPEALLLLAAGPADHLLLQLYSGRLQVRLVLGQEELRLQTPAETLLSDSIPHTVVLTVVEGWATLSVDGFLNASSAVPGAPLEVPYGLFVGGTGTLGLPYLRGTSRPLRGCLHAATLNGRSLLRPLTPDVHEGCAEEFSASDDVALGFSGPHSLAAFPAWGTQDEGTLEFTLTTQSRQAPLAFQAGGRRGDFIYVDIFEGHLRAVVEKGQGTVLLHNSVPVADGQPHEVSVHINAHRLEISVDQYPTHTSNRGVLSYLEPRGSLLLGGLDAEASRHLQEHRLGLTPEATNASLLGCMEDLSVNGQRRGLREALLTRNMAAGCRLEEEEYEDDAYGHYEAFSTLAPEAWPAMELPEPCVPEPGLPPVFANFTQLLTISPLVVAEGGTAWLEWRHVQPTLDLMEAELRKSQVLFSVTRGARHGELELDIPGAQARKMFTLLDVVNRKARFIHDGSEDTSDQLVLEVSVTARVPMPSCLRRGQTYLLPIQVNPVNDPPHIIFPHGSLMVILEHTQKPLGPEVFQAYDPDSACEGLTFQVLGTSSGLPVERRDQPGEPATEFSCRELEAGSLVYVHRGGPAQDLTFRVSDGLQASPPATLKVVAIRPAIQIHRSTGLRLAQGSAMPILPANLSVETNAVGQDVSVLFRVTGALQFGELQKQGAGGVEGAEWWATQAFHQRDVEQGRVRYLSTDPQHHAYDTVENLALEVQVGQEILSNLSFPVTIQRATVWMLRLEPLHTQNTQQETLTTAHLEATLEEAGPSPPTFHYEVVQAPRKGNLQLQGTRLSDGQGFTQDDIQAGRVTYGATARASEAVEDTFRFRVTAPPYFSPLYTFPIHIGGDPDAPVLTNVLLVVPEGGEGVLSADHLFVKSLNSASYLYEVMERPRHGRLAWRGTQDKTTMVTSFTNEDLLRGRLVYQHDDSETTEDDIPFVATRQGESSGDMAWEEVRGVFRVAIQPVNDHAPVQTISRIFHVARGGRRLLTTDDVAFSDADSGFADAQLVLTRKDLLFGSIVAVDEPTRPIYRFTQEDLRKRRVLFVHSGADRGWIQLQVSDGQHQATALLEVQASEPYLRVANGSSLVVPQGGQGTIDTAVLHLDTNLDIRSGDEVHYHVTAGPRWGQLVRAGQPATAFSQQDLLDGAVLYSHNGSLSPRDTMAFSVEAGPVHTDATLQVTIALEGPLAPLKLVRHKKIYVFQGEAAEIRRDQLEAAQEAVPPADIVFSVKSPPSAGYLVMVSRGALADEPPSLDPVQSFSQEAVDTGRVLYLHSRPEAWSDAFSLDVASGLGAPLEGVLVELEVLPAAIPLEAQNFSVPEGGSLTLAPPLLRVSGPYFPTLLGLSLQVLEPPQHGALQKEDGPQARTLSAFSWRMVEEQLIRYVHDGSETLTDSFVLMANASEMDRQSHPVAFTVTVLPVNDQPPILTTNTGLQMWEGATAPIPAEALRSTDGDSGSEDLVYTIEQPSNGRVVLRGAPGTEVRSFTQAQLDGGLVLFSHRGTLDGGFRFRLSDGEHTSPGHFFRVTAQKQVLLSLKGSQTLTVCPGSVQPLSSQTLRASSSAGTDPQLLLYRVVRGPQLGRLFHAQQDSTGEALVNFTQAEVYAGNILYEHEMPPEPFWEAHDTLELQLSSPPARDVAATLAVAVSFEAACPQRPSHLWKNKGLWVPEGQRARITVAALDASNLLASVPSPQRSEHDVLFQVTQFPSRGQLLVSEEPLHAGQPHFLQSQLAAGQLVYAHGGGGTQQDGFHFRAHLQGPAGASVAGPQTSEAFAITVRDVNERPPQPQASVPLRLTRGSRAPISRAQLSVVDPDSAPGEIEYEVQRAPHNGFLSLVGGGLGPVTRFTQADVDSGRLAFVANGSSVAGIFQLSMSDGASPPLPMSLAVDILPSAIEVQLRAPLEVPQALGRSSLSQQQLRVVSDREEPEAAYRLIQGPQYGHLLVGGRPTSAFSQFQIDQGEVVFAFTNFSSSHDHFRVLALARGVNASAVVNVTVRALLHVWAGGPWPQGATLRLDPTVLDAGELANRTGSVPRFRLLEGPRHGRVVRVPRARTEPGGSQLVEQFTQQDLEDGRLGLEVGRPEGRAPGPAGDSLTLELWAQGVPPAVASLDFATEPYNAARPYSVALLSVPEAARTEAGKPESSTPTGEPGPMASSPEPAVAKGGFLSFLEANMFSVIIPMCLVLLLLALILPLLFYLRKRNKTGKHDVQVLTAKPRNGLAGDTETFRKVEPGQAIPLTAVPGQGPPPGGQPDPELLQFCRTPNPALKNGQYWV

B1: LC007 humanized antibody with heavy chain construct M4-1 and light chain ML1 (antibody, V domains shown)
VH: QVQLQESGPGLVKPSQTLSLTCTVSGYSITSGYYWNWIRQHPGKGLEWIGYITYDGSNNYNPSLKSRVTISRDTSKNQFSLKLSSVTAADTAVYYCADFDYWGQGTLVTVSS
VL: DIQMTQSPSSLSASVGDRVTITCSASQGIRNYLNWYQQKPGKAPKLLIYYTSSLHSGVPSRFSGSGSGTDFTLTISSLQPEDFATYYCQQYSKLPWTFGQGTKVEIK
B2: M4-1 ML2 (antibody, V domains shown)
VH: B1 VH
VL: B1 VL with S24R
B3: M4-6 ML1 (antibody, V domains shown)
VH: B1 VH with R72V
VL: B1 VL
B4: antibodies having the heavy chain construct M4-3 (Example 7) (antibody, V domains shown)
VH: B1 VH with Y27G
VL: B1 VL
B5: chimeric antibody LC007 (antibody, human IgG1, kappa, V domains shown)
VH: EVQLQESGPGLVKPSQSLSLTCSVTGYSITSGYYWNWIRQFPGNKLEWMGYITYDGSNNYNPSLKNRISITRDTSKNQFFLKLNSVTTEDTATYYCADFDYWGQGTTLTVSS
VL: DIVLTQSPSSLSASLGDRVTISCSASQGIRNYLNWYQQRPDGTVKLLIYYTSSLHSGVPSRFSGSGSGTDYSLTISNLEPEDIATYYCQQYSKLPWTFGGGTKLEIKR
notes: all such entries are written under the chimeric antibody; also called LC007 antibody; LC007 wt

target: MCSP antigen (as tested in Example 7, FIG. 8) (UniProt Q6UVK1); test: antibody titration with mean fluorescence read-out (cells not named)

Row | binding | Binder
1 | binds | B1
2 | binds | B2
3 | binds | B3
4 | binds | B4
5 | binds | B5
